The list shows a part of the results. Single values of this set are uncertain.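 Tm was set to 64 °C where no melting was found, and many curves are irregular.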
Compound: CCc1cnccc1C(=O)Nc1cc2c(cc1F)NC(=O)CC2
Assay: melting temperature shift (DMSO Tm minus MBE1-treated Tm) in cellular thermal proteome profiling; higher = less thermal stabilization by MBE1 (negative = stabilized by MBE1)
Conditions: A375

Amino acid sequences for entries named in this document (tags omitted). A change or cut given only in a name is not applied to a line headed by its entry.
UniProt Q9BZG8: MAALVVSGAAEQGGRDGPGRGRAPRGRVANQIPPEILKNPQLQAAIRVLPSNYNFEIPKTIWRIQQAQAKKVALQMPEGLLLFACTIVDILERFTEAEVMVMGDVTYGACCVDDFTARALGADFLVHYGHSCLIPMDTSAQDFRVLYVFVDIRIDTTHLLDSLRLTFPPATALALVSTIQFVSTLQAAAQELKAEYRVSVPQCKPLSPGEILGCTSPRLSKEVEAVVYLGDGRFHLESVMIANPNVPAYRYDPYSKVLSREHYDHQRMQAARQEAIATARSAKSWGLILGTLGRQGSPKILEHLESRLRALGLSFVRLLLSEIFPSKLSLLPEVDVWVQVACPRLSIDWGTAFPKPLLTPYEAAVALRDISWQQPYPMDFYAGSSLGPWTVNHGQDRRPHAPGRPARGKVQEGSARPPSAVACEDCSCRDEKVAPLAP
UniProt Q9H7E9: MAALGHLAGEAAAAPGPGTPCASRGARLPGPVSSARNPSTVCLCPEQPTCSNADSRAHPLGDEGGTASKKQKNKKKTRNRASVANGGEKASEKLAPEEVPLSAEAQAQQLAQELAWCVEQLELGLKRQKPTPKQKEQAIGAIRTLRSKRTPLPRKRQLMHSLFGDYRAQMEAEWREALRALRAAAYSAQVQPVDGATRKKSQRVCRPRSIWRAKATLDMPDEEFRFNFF
UniProt Q9H788: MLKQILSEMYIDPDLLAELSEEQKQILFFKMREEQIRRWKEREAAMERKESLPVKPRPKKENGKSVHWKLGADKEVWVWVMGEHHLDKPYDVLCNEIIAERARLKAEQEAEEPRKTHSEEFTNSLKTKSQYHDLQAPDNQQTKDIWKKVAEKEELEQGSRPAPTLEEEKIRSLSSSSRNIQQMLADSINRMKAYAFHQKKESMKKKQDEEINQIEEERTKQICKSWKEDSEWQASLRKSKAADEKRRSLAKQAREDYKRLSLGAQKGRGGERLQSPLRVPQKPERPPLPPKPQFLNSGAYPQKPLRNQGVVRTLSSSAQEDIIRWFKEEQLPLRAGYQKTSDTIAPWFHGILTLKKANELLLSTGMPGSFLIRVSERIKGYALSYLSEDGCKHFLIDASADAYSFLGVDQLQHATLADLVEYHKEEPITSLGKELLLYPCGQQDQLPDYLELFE
UniProt Q9BZE9, whole entry: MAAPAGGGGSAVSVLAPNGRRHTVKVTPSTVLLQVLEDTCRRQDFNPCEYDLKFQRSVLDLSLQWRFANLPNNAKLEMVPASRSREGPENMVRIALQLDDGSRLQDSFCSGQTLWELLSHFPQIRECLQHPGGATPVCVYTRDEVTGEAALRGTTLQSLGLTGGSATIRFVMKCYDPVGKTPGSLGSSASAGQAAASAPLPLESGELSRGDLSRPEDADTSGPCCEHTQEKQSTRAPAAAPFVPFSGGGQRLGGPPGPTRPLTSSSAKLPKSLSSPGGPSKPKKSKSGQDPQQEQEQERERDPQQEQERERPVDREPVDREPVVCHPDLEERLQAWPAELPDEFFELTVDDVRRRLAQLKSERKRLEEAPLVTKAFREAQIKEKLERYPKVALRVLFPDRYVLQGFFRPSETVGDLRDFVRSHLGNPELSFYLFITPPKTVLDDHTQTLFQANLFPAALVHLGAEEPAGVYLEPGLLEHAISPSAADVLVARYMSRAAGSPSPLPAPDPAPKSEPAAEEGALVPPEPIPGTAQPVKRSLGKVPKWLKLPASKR
UniProt Q9H8M5: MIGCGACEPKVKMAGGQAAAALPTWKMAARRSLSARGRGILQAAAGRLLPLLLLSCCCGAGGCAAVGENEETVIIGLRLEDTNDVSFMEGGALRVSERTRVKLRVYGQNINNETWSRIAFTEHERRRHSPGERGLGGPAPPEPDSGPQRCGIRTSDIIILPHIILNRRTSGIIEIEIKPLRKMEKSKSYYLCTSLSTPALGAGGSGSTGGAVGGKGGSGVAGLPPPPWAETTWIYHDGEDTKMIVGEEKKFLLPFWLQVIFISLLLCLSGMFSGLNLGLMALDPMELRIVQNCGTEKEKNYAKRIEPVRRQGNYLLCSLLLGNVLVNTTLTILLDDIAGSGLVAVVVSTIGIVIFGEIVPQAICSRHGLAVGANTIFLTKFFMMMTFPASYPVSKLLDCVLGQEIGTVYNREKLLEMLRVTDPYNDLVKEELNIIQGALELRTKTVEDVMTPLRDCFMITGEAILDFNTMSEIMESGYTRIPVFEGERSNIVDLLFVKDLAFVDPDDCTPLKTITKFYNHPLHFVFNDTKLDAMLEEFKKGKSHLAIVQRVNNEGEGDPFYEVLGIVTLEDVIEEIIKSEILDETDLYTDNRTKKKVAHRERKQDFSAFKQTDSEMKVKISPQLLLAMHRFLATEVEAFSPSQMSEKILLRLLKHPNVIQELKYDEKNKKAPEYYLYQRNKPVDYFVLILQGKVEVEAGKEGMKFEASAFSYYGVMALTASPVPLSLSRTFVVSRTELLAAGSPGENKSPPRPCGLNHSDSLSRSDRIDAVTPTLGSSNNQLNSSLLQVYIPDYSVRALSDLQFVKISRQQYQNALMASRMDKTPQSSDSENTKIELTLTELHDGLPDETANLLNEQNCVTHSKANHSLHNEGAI
UniProt Q9BZH6: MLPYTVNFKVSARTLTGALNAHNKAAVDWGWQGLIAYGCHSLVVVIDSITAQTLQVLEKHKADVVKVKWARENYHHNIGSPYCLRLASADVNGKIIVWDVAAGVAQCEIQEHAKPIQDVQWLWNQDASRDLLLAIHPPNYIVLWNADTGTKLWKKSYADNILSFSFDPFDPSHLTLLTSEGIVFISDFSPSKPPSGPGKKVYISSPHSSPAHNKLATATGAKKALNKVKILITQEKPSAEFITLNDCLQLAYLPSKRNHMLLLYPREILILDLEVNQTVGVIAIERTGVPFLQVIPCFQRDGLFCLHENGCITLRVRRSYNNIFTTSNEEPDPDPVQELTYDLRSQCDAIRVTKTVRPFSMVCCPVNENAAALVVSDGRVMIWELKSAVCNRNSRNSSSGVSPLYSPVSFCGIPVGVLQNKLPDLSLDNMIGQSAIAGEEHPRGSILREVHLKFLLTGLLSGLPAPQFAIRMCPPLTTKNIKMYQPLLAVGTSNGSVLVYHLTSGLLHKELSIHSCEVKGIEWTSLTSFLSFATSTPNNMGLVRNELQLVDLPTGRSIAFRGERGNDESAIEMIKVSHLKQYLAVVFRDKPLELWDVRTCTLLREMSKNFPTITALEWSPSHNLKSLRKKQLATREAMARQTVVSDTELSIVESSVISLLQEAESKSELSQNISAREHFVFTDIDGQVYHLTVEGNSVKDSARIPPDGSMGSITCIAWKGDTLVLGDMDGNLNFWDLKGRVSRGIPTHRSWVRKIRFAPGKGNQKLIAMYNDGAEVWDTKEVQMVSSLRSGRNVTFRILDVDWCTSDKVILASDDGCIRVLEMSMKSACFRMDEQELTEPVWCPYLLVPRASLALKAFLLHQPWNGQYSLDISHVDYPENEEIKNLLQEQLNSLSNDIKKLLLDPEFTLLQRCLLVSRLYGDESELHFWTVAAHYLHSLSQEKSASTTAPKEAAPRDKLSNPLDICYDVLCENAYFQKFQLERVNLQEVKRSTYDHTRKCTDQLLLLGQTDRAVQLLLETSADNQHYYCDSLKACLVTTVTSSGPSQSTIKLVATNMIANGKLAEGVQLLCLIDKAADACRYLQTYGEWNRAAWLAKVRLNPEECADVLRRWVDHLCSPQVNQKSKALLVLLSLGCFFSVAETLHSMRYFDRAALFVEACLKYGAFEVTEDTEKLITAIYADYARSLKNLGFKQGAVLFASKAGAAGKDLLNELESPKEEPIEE
UniProt Q9C0E2: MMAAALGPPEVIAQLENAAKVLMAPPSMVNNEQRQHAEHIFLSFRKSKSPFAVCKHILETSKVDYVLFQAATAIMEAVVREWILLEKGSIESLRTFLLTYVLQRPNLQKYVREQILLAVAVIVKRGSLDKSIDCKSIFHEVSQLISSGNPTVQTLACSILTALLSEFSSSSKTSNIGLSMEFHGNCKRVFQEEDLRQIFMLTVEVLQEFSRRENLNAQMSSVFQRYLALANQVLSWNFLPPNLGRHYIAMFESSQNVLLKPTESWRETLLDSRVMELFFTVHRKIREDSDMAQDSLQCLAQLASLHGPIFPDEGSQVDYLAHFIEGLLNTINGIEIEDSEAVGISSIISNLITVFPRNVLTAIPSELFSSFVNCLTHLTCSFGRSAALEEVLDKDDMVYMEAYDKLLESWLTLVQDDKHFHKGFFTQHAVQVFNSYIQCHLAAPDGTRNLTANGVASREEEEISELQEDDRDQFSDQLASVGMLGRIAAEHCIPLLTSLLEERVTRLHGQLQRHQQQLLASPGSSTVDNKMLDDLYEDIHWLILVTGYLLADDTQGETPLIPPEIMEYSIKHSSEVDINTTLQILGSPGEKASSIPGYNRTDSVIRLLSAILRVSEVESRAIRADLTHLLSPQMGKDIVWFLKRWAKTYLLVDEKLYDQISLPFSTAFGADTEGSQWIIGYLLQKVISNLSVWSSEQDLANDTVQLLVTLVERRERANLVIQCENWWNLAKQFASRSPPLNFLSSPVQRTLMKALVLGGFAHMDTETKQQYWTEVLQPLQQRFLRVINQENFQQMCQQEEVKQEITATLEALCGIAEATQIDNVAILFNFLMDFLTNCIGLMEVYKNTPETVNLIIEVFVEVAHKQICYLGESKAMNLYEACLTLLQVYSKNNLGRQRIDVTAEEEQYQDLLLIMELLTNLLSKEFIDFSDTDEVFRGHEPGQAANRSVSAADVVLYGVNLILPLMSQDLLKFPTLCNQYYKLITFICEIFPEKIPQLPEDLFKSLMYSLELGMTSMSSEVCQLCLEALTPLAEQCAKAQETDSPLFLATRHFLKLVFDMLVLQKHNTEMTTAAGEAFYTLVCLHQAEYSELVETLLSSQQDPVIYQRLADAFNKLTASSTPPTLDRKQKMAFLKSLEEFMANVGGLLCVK
UniProt Q9BYM8: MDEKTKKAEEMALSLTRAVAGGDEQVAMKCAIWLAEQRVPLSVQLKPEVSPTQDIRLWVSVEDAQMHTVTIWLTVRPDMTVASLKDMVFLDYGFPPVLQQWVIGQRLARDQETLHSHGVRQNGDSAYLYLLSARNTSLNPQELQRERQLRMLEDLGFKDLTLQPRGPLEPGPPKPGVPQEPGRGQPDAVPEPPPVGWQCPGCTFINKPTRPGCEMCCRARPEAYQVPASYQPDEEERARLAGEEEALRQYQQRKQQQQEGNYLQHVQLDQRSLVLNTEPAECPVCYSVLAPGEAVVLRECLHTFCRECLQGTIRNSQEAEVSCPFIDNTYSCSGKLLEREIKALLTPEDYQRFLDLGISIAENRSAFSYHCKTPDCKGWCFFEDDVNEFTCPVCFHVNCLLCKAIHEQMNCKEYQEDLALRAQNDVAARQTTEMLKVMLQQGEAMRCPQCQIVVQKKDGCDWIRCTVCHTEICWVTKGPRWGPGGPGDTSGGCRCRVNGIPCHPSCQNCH
UniProt Q9H3U1: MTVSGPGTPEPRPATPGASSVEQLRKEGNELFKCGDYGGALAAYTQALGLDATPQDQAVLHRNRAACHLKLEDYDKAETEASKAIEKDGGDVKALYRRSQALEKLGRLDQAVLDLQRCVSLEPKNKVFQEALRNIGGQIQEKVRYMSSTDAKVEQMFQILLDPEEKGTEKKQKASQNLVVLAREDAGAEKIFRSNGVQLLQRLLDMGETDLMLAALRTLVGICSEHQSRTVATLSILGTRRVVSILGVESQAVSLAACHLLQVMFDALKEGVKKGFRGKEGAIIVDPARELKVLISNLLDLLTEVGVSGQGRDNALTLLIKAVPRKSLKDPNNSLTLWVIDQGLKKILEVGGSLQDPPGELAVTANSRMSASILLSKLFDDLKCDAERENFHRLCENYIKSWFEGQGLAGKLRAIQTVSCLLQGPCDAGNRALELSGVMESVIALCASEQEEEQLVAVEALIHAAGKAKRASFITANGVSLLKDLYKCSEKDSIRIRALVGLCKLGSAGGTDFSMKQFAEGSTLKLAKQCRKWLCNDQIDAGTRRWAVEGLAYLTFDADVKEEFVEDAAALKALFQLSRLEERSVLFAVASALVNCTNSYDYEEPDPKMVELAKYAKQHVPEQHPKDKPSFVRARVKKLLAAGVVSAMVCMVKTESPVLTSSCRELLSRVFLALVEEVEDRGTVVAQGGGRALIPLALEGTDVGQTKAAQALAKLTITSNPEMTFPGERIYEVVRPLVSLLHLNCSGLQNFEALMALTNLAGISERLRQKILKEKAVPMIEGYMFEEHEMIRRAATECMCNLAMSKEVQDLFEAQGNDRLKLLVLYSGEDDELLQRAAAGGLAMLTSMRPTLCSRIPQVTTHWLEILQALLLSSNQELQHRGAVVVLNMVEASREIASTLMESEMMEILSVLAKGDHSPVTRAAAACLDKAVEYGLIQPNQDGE

Target: DPH1 (UniProt Q9BZG8)
- melting temperature shift (MBE1 concentration: 100 nM): -0.812 °C
- melting temperature shift (MBE1 concentration: 1 uM): 1.25 °C

Target: C8ORF33 (UniProt Q9H7E9)
- melting temperature shift (MBE1 concentration: 100 nM): 3.54 °C
- melting temperature shift (MBE1 concentration: 1 uM): 1.05 °C

Target: UniProt Q9H582
- melting temperature shift (MBE1 concentration: 100 nM): -0.315 °C
- melting temperature shift (MBE1 concentration: 1 uM): 4.02 °C

Target: SH2D4A (UniProt Q9H788)
- melting temperature shift (MBE1 concentration: 100 nM): -0.988 °C
- melting temperature shift (MBE1 concentration: 1 uM): -0.0659 °C

Target: CXORF56 (UniProt Q9H5V9)
- melting temperature shift (MBE1 concentration: 100 nM): 0.543 °C
- melting temperature shift (MBE1 concentration: 1 uM): -0.0916 °C

Target: BTBD1 (UniProt Q9H0C5)
- melting temperature shift (MBE1 concentration: 100 nM): -1.66 °C
- melting temperature shift (MBE1 concentration: 1 uM): -0.58 °C

Target: KCTD10 (UniProt Q9H3F6)
- melting temperature shift (MBE1 concentration: 100 nM): -2.03 °C
- melting temperature shift (MBE1 concentration: 1 uM): 0.758 °C

Target: ASPSCR1 (UniProt Q9BZE9)
- melting temperature shift (MBE1 concentration: 100 nM): 0.277 °C
- melting temperature shift (MBE1 concentration: 1 uM): 0.592 °C

Target: OSGEPL1 (UniProt Q9H4B0)
- melting temperature shift (MBE1 concentration: 100 nM): 1.81 °C
- melting temperature shift (MBE1 concentration: 1 uM): -0.0183 °C

Target: POMK (UniProt Q9H5K3)
- melting temperature shift (MBE1 concentration: 100 nM): -3 °C
- melting temperature shift (MBE1 concentration: 1 uM): 0.208 °C

Target: CNNM2 (UniProt Q9H8M5)
- melting temperature shift (MBE1 concentration: 100 nM): 0.797 °C
- melting temperature shift (MBE1 concentration: 1 uM): 0.194 °C

Target: KLC2 (UniProt Q9H0B6)
- melting temperature shift (MBE1 concentration: 100 nM): 0.153 °C
- melting temperature shift (MBE1 concentration: 1 uM): -0.195 °C

Target: XRN2 (UniProt Q9H0D6)
- melting temperature shift (MBE1 concentration: 100 nM): -4.07 °C
- melting temperature shift (MBE1 concentration: 1 uM): -4.89 °C

Target: ACBD3 (UniProt Q9H3P7)
- melting temperature shift (MBE1 concentration: 100 nM): 0.0427 °C
- melting temperature shift (MBE1 concentration: 1 uM): -0.488 °C

Target: WDR26 (UniProt Q9H7D7)
- melting temperature shift (MBE1 concentration: 100 nM): -0.104 °C
- melting temperature shift (MBE1 concentration: 1 uM): -0.202 °C

Target: UniProt Q9H0H0
- melting temperature shift (MBE1 concentration: 100 nM): 0.214 °C
- melting temperature shift (MBE1 concentration: 1 uM): -0.812 °C

Target: WDR11 (UniProt Q9BZH6)
- melting temperature shift (MBE1 concentration: 100 nM): -0.771 °C
- melting temperature shift (MBE1 concentration: 1 uM): -0.381 °C

Target: RANBP3 (UniProt Q9H6Z4)
- melting temperature shift (MBE1 concentration: 100 nM): -0.445 °C
- melting temperature shift (MBE1 concentration: 1 uM): -0.488 °C

Target: FUT8 (UniProt Q9BYC5)
- melting temperature shift (MBE1 concentration: 100 nM): -0.647 °C
- melting temperature shift (MBE1 concentration: 1 uM): 0.238 °C

Target: UNK (UniProt Q9C0B0)
- melting temperature shift (MBE1 concentration: 100 nM): 1.07 °C
- melting temperature shift (MBE1 concentration: 1 uM): 0.476 °C

Target: XPO4 (UniProt Q9C0E2)
- melting temperature shift (MBE1 concentration: 100 nM): -0.621 °C
- melting temperature shift (MBE1 concentration: 1 uM): 0.0794 °C

Target: RPAP3 (UniProt Q9H6T3)
- melting temperature shift (MBE1 concentration: 100 nM): 1 °C
- melting temperature shift (MBE1 concentration: 1 uM): 0.458 °C

Target: SENP6 (UniProt Q9GZR1)
- melting temperature shift (MBE1 concentration: 100 nM): 1.45 °C
- melting temperature shift (MBE1 concentration: 1 uM): 0.788 °C

Target: GOLPH3L (UniProt Q9H4A5)
- melting temperature shift (MBE1 concentration: 100 nM): -0.979 °C
- melting temperature shift (MBE1 concentration: 1 uM): -0.362 °C

Target: OSBPL8 (UniProt Q9BZF1)
- melting temperature shift (MBE1 concentration: 100 nM): -0.108 °C
- melting temperature shift (MBE1 concentration: 1 uM): -0.193 °C

Target: UniProt Q9H6R7
- melting temperature shift (MBE1 concentration: 100 nM): 0.806 °C
- melting temperature shift (MBE1 concentration: 1 uM): 0.177 °C

Target: YTHDC2 (UniProt Q9H6S0)
- melting temperature shift (MBE1 concentration: 100 nM): -0.804 °C
- melting temperature shift (MBE1 concentration: 1 uM): -0.506 °C

Target: FTO (UniProt Q9C0B1)
- melting temperature shift (MBE1 concentration: 100 nM): -1.03 °C
- melting temperature shift (MBE1 concentration: 1 uM): 0.22 °C

Target: ANAPC1 (UniProt Q9H1A4)
- melting temperature shift (MBE1 concentration: 100 nM): 0.751 °C
- melting temperature shift (MBE1 concentration: 1 uM): 0.238 °C

Target: VPS11 (UniProt Q9H270)
- melting temperature shift (MBE1 concentration: 100 nM): -0.725 °C
- melting temperature shift (MBE1 concentration: 1 uM): -1.26 °C

Target: MRPL20 (UniProt Q9BYC9)
- melting temperature shift (MBE1 concentration: 100 nM): 0.592 °C
- melting temperature shift (MBE1 concentration: 1 uM): -0.0427 °C

Target: WDR13 (UniProt Q9H1Z4)
- melting temperature shift (MBE1 concentration: 100 nM): -1.61 °C
- melting temperature shift (MBE1 concentration: 1 uM): 1.02 °C

Target: GTPBP4 (UniProt Q9BZE4)
- melting temperature shift (MBE1 concentration: 100 nM): -0.545 °C
- melting temperature shift (MBE1 concentration: 1 uM): -0.0192 °C

Target: MRPL1 (UniProt Q9BYD6)
- melting temperature shift (MBE1 concentration: 100 nM): -0.0047 °C
- melting temperature shift (MBE1 concentration: 1 uM): 0.282 °C

Target: UniProt Q9BYM8
- melting temperature shift (MBE1 concentration: 100 nM): 0.269 °C
- melting temperature shift (MBE1 concentration: 1 uM): -0.183 °C

Target: YTHDF1 (UniProt Q9BYJ9)
- melting temperature shift (MBE1 concentration: 100 nM): 0.116 °C
- melting temperature shift (MBE1 concentration: 1 uM): 0.977 °C

Target: TRIM5 (UniProt Q9C035)
- melting temperature shift (MBE1 concentration: 100 nM): -0.899 °C
- melting temperature shift (MBE1 concentration: 1 uM): -0.0612 °C

Target: HEATR1 (UniProt Q9H583)
- melting temperature shift (MBE1 concentration: 100 nM): -0.63 °C
- melting temperature shift (MBE1 concentration: 1 uM): 0.0235 °C

Target: NLN (UniProt Q9BYT8)
- melting temperature shift (MBE1 concentration: 100 nM): -0.997 °C
- melting temperature shift (MBE1 concentration: 1 uM): -0.0805 °C

Target: ALG2 (UniProt Q9H553)
- melting temperature shift (MBE1 concentration: 100 nM): 0.0427 °C
- melting temperature shift (MBE1 concentration: 1 uM): 0.403 °C

Target: UniProt Q9H019
- melting temperature shift (MBE1 concentration: 100 nM): 1.1 °C
- melting temperature shift (MBE1 concentration: 1 uM): 0.953 °C

Target: RAB33B (UniProt Q9H082)
- melting temperature shift (MBE1 concentration: 100 nM): -1.07 °C
- melting temperature shift (MBE1 concentration: 1 uM): -2.52 °C

Target: UNC45A (UniProt Q9H3U1)
- melting temperature shift (MBE1 concentration: 100 nM): -1.12 °C
- melting temperature shift (MBE1 concentration: 1 uM): -0.349 °C

Target: TFB2M (UniProt Q9H5Q4)
- melting temperature shift (MBE1 concentration: 100 nM): 0.293 °C
- melting temperature shift (MBE1 concentration: 1 uM): -0.0916 °C

Target: LNP (UniProt Q9C0E8)
- melting temperature shift (MBE1 concentration: 100 nM): -2.11 °C
- melting temperature shift (MBE1 concentration: 1 uM): -2.79 °C

Target: DDX24 (UniProt Q9GZR7)
- melting temperature shift (MBE1 concentration: 100 nM): 0.348 °C
- melting temperature shift (MBE1 concentration: 1 uM): 0.708 °C

— the supplement of paper PMC12595434, “Development of retinoid nuclear receptor pathway antagonists through targeting aldehyde dehydrogenase 1A3” (iScience, 2025)
